From patent publication US20250051391A1, “PEPTIDE INHIBITORS AND METHODS FOR INHIBITING PROTEIN AGGREGATION IN NEURONS AND NEURODEGENERATIVE DISEASES” (THE GOVERNING COUNCIL OF THE UNIVERSITY OF TORONTO, priority 2021, published 2025)
These are yes or no findings as the source states them, for the method shown. In cells and extracts the contact can be indirect. Some entries that bind do so weakly or less than the wild type. Sequences can lack the tags named with a protein.

The chains behind the UniProt entries cited, without tags or fusion partners.
UniProt Q9UQN3: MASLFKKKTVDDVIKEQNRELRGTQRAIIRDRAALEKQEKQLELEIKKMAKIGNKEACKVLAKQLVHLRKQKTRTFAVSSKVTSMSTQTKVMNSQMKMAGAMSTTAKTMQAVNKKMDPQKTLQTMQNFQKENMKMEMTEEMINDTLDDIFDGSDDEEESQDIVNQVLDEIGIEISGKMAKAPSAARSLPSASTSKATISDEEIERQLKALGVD

Tests used:
Flag-CHMP2B [1] = target: T1, Flag-CHMP2B (Homo sapiens, UniProt Q9UQN3); assay: co-immunoprecipitation, Flag-CHMP2B and GFP-peptides (FIG. 1D)
Flag-CHMP2B [2] = target: T1, Flag-CHMP2B; assay: co-immunoprecipitation in cells (FIG. 1D)

Row | binding (Flag-CHMP2B [1]) | binding (Flag-CHMP2B [2]) | Binder
1 | binds | – | IPIQLKA (peptide, not shown: large carriers) [GFP-tagged PDpep1 peptide]
2 | binds | binds | DEEIERQLKALG (peptide, not shown: large carriers) [GFP-tagged PDpep1.3 peptide]
